Results on one substance are retold here after paper PMC12167790.

The chains behind the UniProt entries cited, without tags or fusion partners. Residues count along the entry.
UniProt P08962: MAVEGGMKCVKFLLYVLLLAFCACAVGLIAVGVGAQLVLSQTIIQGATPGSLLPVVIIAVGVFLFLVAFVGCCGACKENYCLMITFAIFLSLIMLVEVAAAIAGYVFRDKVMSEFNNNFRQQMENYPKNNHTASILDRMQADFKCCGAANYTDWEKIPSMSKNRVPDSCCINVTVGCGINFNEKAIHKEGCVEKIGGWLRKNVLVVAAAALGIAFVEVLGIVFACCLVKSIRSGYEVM
UniProt P01033, residues 24-207: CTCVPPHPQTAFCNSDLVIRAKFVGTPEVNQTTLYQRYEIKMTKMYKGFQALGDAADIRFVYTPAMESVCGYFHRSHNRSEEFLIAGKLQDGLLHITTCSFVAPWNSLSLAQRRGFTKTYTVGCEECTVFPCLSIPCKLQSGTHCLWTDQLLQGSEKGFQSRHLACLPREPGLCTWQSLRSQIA

These are yes or no findings as the source states them, for the method shown. Some entries that bind do so weakly or less than the wild type.

In the assay the target is tetraspanin CD63 on TIMP-1 KO T3M4 cells (human (endogenous in T3M4)) (UniProt P08962). Briefly: flow cytometry on cells; TIMP-1 KO T3M4 cells incubated with equimolar (escalating) doses of recombinant TIMP-1 in 1% BSA in PBS for 10 min on ice, washed, fixed with 2% PFA, stained for TIMP-1 and CD63; geometric mean of TIMP-1 staining of CD63-positive single cells, untreated control subtracted; only the binder purified.

As for “recombinant double-glycosylated TIMP-1 (rTIMP-1^glyc1/1) (from UniProt P01033 24-207)”, the binding entry is “binds”.
